From publication doi:10.1101/2023.08.14.553183
These are yes or no findings as the source states them, for the method shown. Binding seen in cells or lysates may run through a third protein. These calls come from enrichment with a bait or labelling near it, and not all partners need be listed. Tags and fused reporters may be left off the sequences shown. Values belong to the molecule of their own block, whether it stands above or below them.

Target: T1, FLAG-HA-ER-tagged SAMD1 (estrogen-receptor (ER)-SAMD1 fusion protein), stably expressed in PaTu8988t SAMD1 KO cells (UniProt Q6SPF0)
T1 sequence: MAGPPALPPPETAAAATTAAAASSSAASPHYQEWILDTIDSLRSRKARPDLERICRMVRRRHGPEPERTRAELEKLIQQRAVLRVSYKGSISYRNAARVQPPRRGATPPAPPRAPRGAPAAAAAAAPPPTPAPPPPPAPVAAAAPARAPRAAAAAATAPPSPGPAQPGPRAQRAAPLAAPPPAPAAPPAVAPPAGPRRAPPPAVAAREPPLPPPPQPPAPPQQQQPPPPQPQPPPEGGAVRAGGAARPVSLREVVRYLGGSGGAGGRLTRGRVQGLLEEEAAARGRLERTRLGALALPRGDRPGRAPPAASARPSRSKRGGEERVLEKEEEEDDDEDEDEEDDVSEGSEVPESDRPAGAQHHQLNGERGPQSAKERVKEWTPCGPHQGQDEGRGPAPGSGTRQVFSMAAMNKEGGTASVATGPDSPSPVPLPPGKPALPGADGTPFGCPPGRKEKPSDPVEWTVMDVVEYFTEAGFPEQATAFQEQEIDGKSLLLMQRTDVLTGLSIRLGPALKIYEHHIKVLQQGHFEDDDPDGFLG
Assay: affinity purification with mass spectrometry

binding: binds
Molecule: SKP1, endogenous in PaTu8988t cells (from UniProt P63208 1-163)

binding: binds
B1: L3MBTL3, endogenous in PaTu8988t cells (protein, UniProt Q96JM7 1-780)
chain: MTESASSTSGQEFDVFSVMDWKDGVGTLPGSDLKFRVNEFGALEVITDENEMENVKKATATTTWMVPTAQEAPTSPPSSRPVFPPAYWTSPPGCPTVFSEKTGMPFRLKDPVKVEGLQFCENCCQYGNVDECLSGGNYCSQNCARHIKDKDQKEERDVEEDNEEEDPKCSRKKKPKLSLKADTKEDGEERDDEMENKQDVRILRGSQRARRKRRGDSAVLKQGLPPKGKKAWCWASYLEEEKAVAVPAKLFKEHQSFPYNKNGFKVGMKLEGVDPEHQSVYCVLTVAEVCGYRIKLHFDGYSDCYDFWVNADALDIHPVGWCEKTGHKLHPPKGYKEEEFNWQTYLKTCKAQAAPKSLFENQNITVIPSGFRVGMKLEAVDKKNPSFICVATVTDMVDNRFLVHFDNWDESYDYWCEASSPHIHPVGWCKEHRRTLITPPGYPNVKHFSWDKYLEETNSLPAPARAFKVKPPHGFQKKMKLEVVDKRNPMFIRVATVADTDDHRVKVHFDGWNNCYDYWIDADSPDIHPVGWCSKTGHPLQPPLSPLELMEASEHGGCSTPGCKGIGHFKRARHLGPHSAANCPYSEINLNKDRIFPDRLSGEMPPASPSFPRNKRTDANESSSSPEIRDQHADDVKEDFEERTESEMRTSHEARGAREEPTVQQAQRRSAVFLSFKSPIPCLPLRWEQQSKLLPTVAGIPASKVSKWSTDEVSEFIQSLPGCEEHGKVFKDEQIDGEAFLLMTQTDIVKIMSIKLGPALKIFNSILMFKAAEKNSHNEL

binding: binds
B2: F-box only protein 11 (FBXO11), endogenous in PaTu8988t cells (protein, UniProt Q86XK2 1-927)
chain: MNSVRAANRRPRRVSRPRPVQQQQQQPPQQPPPQPPQQQPPQQQPPPPPQQQQQQQPPPPPPPPPPLPQERNNVGERDDDVPADMVAEESGPGAQNSPYQLRRKTLLPKRTACPTKNSMEGASTSTTENFGHRAKRARVSGKSQDLSAAPAEQYLQEKLPDEVVLKIFSYLLEQDLCRAACVCKRFSELANDPILWKRLYMEVFEYTRPMMHPEPGKFYQINPEEYEHPNPWKESFQQLYKGAHVKPGFAEHFYSNPARYKGRENMLYYDTIEDALGGVQEAHFDGLIFVHSGIYTDEWIYIESPITMIGAAPGKVADKVIIENTRDSTFVFMEGSEDAYVGYMTIRFNPDDKSAQHHNAHHCLEITVNCSPIIDHCIIRSTCTVGSAVCVSGQGACPTIKHCNISDCENVGLYITDHAQGIYEDNEISNNALAGIWVKNHGNPIIRRNHIHHGRDVGVFTFDHGMGYFESCNIHRNRIAGFEVKAYANPTVVRCEIHHGQTGGIYVHEKGRGQFIENKIYANNFAGVWITSNSDPTIRGNSIFNGNQGGVYIFGDGRGLIEGNDIYGNALAGIQIRTNSCPIVRHNKIHDGQHGGIYVHEKGQGVIEENEVYSNTLAGVWVTTGSTPVLRRNRIHSGKQVGVYFYDNGHGVLEDNDIYNHMYSGVQIRTGSNPKIRRNKIWGGQNGGILVYNSGLGCIEDNEIFDNAMAGVWIKTDSNPTLRRNKIHDGRDGGICIFNGGRGLLEENDIFRNAQAGVLISTNSHPILRKNRIFDGFAAGIEITNHATATLEGNQIFNNRFGGLFLASGVNVTMKDNKIMNNQDAIEKAVSRGQCLYKISSYTSYPMHDFYRCHTCNTTDRNAICVNCIKKCHQGHDVEFIRHDRFFCDCGAGTLSNPCTLAGEPTHDTDTLYDSAPPIESNTLQHN

binding: binds
B3: L3MBTL4, endogenous in PaTu8988t cells (protein, UniProt Q8NA19 1-623)
chain: MKQPNRKRKLNMDSKERLDQDGRLEQAEEEKKPKDSTTPLSHVPSAAAQGAWSWEWYLKEQKAVAAPVELFSKDQSFPEHENGFQIGMRLEGIDPRHPSVFCVLSVAEVCGYRLRLHFDGYLSCYDFWTNAGSPDIHPVGWCEKTKHELHIPKGYRKDKFVWMDYLKACKLQNAPKKLFRNRSPNGPMSKEFQVGMKLEAVDRKNPSLVCVATIADIVEDRLLVHFDNWDDSYDYWCDVNSPYVQPVGWCQENGRTLIAPQGYPNPENFSWTEYLEATQTNAVPAKVFKMRLPHGFLPNMKLEVVDKRNPRLIRVATIVDVDDQRVKVHFDGWDHKYDYWVEADSPDIHPIGWCDVTGHPLEVPQRTNDLKILPGQAVCPTPGCRGIGHIRGPRYSGHHSAFGCPYSDMNLKKEATLHDRLREQTQANLESDSSHSKSKSLCSLNFNGKHEKVNSQPRLVQQAKCLKIKGKEDIDLDNLFRVLVLHPRGLEYSVEQAQQVLHQSVSMSTVSAHPFRDLPLGREQHCKLLPGVADIRASQVARWTVDEVAEFVQSLLGCEEHAKCFKKEQIDGKAFLLLTQTDIVKVMKIKLGPALKIYNSILMFRHSQELPEEDIASGQEVRG
